Consider one substance from publication PMC12636710.

By UniProt entry, the sequences of proteins in these tests, tags left out. Residues count along the entry.
UniProt P02649, residues 19-317: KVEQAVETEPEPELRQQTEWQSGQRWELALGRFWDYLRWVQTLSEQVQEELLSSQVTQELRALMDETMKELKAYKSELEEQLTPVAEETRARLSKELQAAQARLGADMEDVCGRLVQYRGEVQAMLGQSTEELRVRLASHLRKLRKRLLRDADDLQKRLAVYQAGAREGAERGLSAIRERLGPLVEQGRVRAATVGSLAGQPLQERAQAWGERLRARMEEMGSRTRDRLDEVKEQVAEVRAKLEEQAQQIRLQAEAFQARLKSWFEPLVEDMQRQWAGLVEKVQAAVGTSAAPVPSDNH

This experiment addresses human apolipoprotein E, apoE3 isoform (ε3 allele) (human) (UniProt P02649). Description: co-IP.

Results are given in words; binding and its absence hold for the method and conditions named. Binding seen in cells or lysates may run through a third protein. Some binding calls cover weakened binding; strength is not graded here.

Take “prion protein (PrP) (from UniProt P04925 23-230)”: the binding entry was “binds”.
